Publication PMC12339401
No constants are given. Whether binding was seen depends on the method and setting. For some of these results: In cells and extracts the contact can be indirect. Some entries that bind do so weakly or less than the wild type. For some of these results: Tags and fused reporters may be left off the sequences shown.

By UniProt entry, the sequences of proteins in these tests, tags left out. Where a name states a change or a piece, a line headed by the entry shows the natural chain unless it says otherwise. Residues count along the entry.
UniProt Q9Y6I9: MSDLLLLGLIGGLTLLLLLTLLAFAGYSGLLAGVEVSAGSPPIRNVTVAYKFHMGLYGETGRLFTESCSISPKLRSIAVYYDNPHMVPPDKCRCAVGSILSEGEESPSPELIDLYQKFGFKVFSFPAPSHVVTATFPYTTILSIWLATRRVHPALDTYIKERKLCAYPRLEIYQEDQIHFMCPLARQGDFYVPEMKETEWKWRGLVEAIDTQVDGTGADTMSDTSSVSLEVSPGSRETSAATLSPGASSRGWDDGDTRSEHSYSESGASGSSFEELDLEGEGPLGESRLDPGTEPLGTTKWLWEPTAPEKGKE
UniProt O60238: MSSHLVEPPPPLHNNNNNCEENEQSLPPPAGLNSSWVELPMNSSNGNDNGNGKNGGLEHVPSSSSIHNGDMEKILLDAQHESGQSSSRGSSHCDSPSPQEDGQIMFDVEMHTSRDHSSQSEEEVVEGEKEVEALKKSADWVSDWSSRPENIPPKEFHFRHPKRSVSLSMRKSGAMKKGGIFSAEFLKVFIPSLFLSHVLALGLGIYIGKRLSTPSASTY
NIX(1–182)-GST: residues 1-182 of O60238

B1: WIPI2 (endogenous) (protein, UniProt Q9Y4P8 1-454)
chain: MNLASQSGEAGAGQLLFANFNQDNTEVKGASRAAGLGRRAVVWSLAVGSKSGYKFFSLSSVDKLEQIYECTDTEDVCIVERLFSSSLVAIVSLKAPRKLKVCHFKKGTEICNYSYSNTILAVKLNRQRLIVCLEESLYIHNIRDMKVLHTIRETPPNPAGLCALSINNDNCYLAYPGSATIGEVQVFDTINLRAANMIPAHDSPLAALAFDASGTKLATASEKGTVIRVFSIPEGQKLFEFRRGVKRCVSICSLAFSMDGMFLSASSNTETVHIFKLETVKEKPPEEPTTWTGYFGKVLMASTSYLPSQVTEMFNQGRAFATVRLPFCGHKNICSLATIQKIPRLLVGAADGYLYMYNLDPQEGGECALMKQHRLDGSLETTNEILDSASHDCPLVTQTYGAAAGKGTYVPSSPTRLAYTDDLGAVGGACLEDEASALRLDEDSEHPPMILRTD
B2: GFP-tagged TBK1 (enzyme, UniProt Q9UHD2 1-729)
chain: MQSTSNHLWLLSDILGQGATANVFRGRHKKTGDLFAIKVFNNISFLRPVDVQMREFEVLKKLNHKNIVKLFAIEEETTTRHKVLIMEFCPCGSLYTVLEEPSNAYGLPESEFLIVLRDVVGGMNHLRENGIVHRDIKPGNIMRVIGEDGQSVYKLTDFGAARELEDDEQFVSLYGTEEYLHPDMYERAVLRKDHQKKYGATVDLWSIGVTFYHAATGSLPFRPFEGPRRNKEVMYKIITGKPSGAISGVQKAENGPIDWSGDMPVSCSLSRGLQVLLTPVLANILEADQEKCWGFDQFFAETSDILHRMVIHVFSLQQMTAHKIYIHSYNTATIFHELVYKQTKIISSNQELIYEGRRLVLEPGRLAQHFPKTTEENPIFVVSREPLNTIGLIYEKISLPKVHPRYDLDGDASMAKAITGVVCYACRIASTLLLYQELMRKGIRWLIELIKDDYNETVHKKTEVVITLDFCIRNIEKTVKVYEKLMKINLEAAELGEISDIHTKLLRLSSSQGTIETSLQDIDSRLSPGGSLADAWAHQEGTHPKDRNVEKLQVLLNCMTEIYYQFKKDKAERRLAYNEEQIHKFDKQKLYYHATKAMTHFTDECVKKYEAFLNKSEEWIRKMLHLRKQLLSLTNQCFDIEEEVSKYQEYTNELQETLPQKMFTASSGIKHTMTPIYPSSNTLVEMTLGMKKLKEEMEGVVKELAENNHILERFGSLTMDGGLRNVDCL

Experiments:
[1] = biological target: TEX264-GFP (human) (UniProt Q9Y6I9); assay: co-IP; TEX264-GFP transiently expressed in HeLa cells, 6 h EBSS starvation; GFP-Trap agarose beads, overnight; immunoblot for WIPI2
[2] = biological target: V5-NIX (human) (UniProt O60238); assay: co-IP; V5-NIX in BNIP3/NIX double-knockout HeLa cells, where indicated treated with DFP; anti-V5 agarose beads, overnight; immunoblot for WIPI2
[3] = biological target: NIX(1–182)-GST (human) (UniProt O60238); assay: pull-down; beads precoated with GST, NIX-GST or BNIP3-GST, incubated overnight with HeLa cell lysate, SDS–PAGE and western blot for WIPI proteins; only the target purified
[4] = biological target: NIX(1–182)-GST (human) (UniProt O60238); assay: microscopy-based bead assay; GST-tagged bait on Glutathione Sepharose 4B beads, GFP- or mCherry-tagged prey in solution, confocal imaging; both purified

Row | Binder | binding [1] | binding [2] | binding [3] | binding [4]
1 | B1 | binds | binds | binds | –
2 | B2 | – | – | – | no binding
